Laboratory results taken from patent US20060111305A1, “Metabolites of certain [1,4]diazepino[6,7,1-ij]quinoline derivatives and methods of preparation and use thereof” (Wyeth, priority 2004, published 2006).
Several values for one entry are separate records, joined by “and”; a condition that tells them apart may be missing. Equal values may be shown once. Further values from the same series stand in other lists.

Assay: Concentrations of DCDQ and DCDQ carbamoyl glucuronide (M6) in human plasma, LC/SRM (Table 34)
Assay type: in vivo, healthy human subjects
Description: Drug administration and specimen collection were performed in a randomized, double-blinded, placebo-controlled, ascending single dose study of the safety, tolerability, pharmacokinetics, and pharmacodynamics of DCDQ administered orally to healthy subjects and subjects with schizophrenia and schizoaffective disorder. The specimens were stored at approximately −70° C. until analysis for metabolite profiles and for ratios of carbamoyl glucuronide (M6) to DCDQ.
Plasma samples from fasted subjects 25, 28 and 30 in the 50 mg single dose group, fasted subjects 50, 51, 54 in the 200 mg single dose group, fasted subjects 74, 76, 79 in the 300 mg single dose group, fed subjects 83, 84, 86 in the 300 mg single dose group and fasted subjects 92, 94, 96 in the 500 mg single dose group were analyzed for DCDQ carbamoyl glucuronide (M6) concentrations. The internal standard d8-DCDQ (25 μL of 200 ng/mL methanol solution) was added to 100 μL of the plasma samples, followed by the addition of 300 μL of acetonitrile. The samples were mixed and centrifuged at 14000 rpm in an Eppendorf 5415C centrifuge (Brinkman Instruments Inc., Westbury, N.Y.) for 10 minutes. The supernatant of each sample was transferred to a clean tube and evaporated to dryness under a stream of nitrogen in a TurboVap LV evaporator (Caliper Life Sciences, Hopkinton, Mass.). The residue was reconstituted with 50 μL of methanol followed by the addition of 150 μL of water. The sample was mixed and centrifuged as described above. The supernatant was analyzed by LC/MS/MS analysis. Samples for standard curves were prepared with control plasma spiked with synthetic M6. The concentrations of M6 used for the standard curve ranged from 0 to 2500 ng/mL plasma.
LC/MS System 3 was used for semi-quantitative analysis of metabolite M6 (DCDQ carbamoyl glucuronide) in plasma and urine samples. The HPLC equipment for this LC/MS System consisted of a Thermo Surveyor HPLC (Thermo Electron Corp., San Jose, Calif.), including a Surveyor MS pump and autosampler. Separations were accomplished on a 5 micron Phenomenex Luna C18(2) column, 150×2 mm (Phenomenex, Torrance, Calif.). The autosampler and column temperatures were set at 5° C. and 40° C., respectively. The HPLC mobile phase consisted of 10 mM ammonium acetate (A) and methanol (B), and was delivered at 0.2 mL/min. The linear mobile phase gradient (HPLC Gradient 2) is shown below. During LC/MS sample analysis, up to 3 min of the initial flow was diverted away from the mass spectrometer prior to evaluation of metabolites.
The mass spectrometer used for semi-quantitative anslysis with LC/MS System 3 was a Finnigan TSQ Quantum triple quadrupole mass spectrometer (Thermo Electron Corp.). The mass spectrometer was equipped with an electrospray interface and operated in the positive ionization mode. Settings for this mass spectrometer are listed below.
LC/MS/MS analysis in the selected reaction monitoring (SRM) mode (LC/SRM) was conducted for DCDQ and M6 using the following settings.
The computer program Microsoft Excel® 97 was used to calculate means and standard deviations and to perform the student t-test. Xcalibur (version 1.3) and MassLynx software (version 4.0) were used for collection and analysis of LC/MS data. Peak area ratios of M6 to the internal standard were used for quantitation of M6 in plasma samples.

[1] = 50 mg (fasted), 6 hr, individual subjects

SMILES | DCDQ concentration in plasma [1] | M6 to DCDQ Ratios [1] | M6 to DCDQ Ratios (300 mg (fed), 12 hr, Mean ± S.D.) | M6 to DCDQ Ratios (300 mg (fed), 12 hr, individual subjects) | M6 to DCDQ Ratios (300 mg (fed), 24 hr, Mean ± S.D.) | M6 to DCDQ Ratios (300 mg (fed), 24 hr, individual subjects) | M6 to DCDQ Ratios (500 mg (fasted), 6 hr, Mean ± S.D.) | M6 to DCDQ Ratios (500 mg (fasted), 6 hr, individual subjects) | M6 to DCDQ Ratios (500 mg (fasted), 12 hr, Mean ± S.D.) | M6 to DCDQ Ratios (500 mg (fasted), 12 hr, individual subjects) | M6 to DCDQ Ratios (500 mg (fasted), 24 hr, Mean ± S.D.) | M6 to DCDQ Ratios (500 mg (fasted), 24 hr, individual subjects)
c1cc2c3c(c1)[C@H]1CCC[C@H]1CN3CCNC2 [DCDQ, (9aR,12aS)-4,5,6,7,9,9a,10,11,12,12a-decahydro-cyclopenta[c][1,4]diazepine[6,7,1-ij]quinoline, reference compound] | 1.5 ng/mL |  |  |  |  |  |  |  |  |  |  | 
O=C(O)[C@H]1O[C@@H](OC(=O)N2CCN3C[C@@H]4CCC[C@@H]4c4cccc(c43)C2)[C@H](O)[C@@H](O)[C@@H]1O [Metabolite M6, carbamoyl glucuronide of DCDQ] |  | 55.4 | 40.3 ± 44.7 | 90.5 | 23.1 ± 27.1 | 9.46 and 5.57 and 54.3 | 35.4 ± 22.7 | 29.8 and 16.0 and 60.4 | 10.5 ± 5.92 | 5.96 and 8.34 and 17.2 | 10.7 ± 8.77 | 10.5 and 1.96 and 19.5
